Laboratory results taken from the supplement of paper PMC6411743.
± gives the standard deviation of the averaged measurements. Only a part is listed here, and it is no random draw. Most entries show no effect beyond the scatter of the controls.

Sequences of proteins named here, by UniProt entry; tags and fusion partners are left off. A change or cut given only in a name is not applied to a line headed by its entry.
UniProt Q9NWZ8: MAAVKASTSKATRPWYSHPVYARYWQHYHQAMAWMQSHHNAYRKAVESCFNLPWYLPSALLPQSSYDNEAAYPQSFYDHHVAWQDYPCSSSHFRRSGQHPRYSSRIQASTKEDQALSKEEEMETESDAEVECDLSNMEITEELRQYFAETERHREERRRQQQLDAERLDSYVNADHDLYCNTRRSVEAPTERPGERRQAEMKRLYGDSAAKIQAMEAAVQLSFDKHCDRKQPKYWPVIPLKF
UniProt Q9NQG5: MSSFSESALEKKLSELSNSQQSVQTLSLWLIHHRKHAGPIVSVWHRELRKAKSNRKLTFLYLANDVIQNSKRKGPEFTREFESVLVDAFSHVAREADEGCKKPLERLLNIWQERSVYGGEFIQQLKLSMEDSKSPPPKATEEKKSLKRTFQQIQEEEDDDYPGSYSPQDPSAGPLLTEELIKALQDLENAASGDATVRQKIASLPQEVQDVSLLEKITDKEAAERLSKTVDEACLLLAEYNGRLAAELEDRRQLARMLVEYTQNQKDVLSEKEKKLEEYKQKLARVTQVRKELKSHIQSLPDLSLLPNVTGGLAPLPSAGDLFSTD
UniProt Q9P035: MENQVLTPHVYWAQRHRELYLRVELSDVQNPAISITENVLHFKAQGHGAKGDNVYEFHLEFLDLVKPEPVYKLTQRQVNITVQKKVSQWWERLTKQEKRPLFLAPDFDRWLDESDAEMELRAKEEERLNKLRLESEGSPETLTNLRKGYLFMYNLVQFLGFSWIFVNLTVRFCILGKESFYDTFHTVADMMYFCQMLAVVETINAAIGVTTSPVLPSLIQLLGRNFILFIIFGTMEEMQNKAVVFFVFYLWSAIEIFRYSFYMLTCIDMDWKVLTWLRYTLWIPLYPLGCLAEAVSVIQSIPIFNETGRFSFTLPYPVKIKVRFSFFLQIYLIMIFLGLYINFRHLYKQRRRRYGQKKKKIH
UniProt Q9NWB6: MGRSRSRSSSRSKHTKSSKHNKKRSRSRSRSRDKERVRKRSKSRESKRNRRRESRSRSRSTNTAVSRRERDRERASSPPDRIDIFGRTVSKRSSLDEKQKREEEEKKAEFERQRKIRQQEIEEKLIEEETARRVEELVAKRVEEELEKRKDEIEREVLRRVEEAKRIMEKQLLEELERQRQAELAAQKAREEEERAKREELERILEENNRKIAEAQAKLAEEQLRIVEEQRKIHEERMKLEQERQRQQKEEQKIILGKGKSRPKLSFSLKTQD
UniProt Q9NQ29: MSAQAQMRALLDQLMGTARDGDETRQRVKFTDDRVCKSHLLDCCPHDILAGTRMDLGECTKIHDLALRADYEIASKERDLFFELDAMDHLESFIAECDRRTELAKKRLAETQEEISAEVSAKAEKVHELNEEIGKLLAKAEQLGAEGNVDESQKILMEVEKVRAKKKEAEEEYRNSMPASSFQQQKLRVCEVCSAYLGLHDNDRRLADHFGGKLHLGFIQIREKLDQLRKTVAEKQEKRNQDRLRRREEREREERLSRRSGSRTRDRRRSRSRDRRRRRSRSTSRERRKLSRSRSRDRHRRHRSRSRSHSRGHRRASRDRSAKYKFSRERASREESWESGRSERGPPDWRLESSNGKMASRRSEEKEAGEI
UniProt Q9NW64: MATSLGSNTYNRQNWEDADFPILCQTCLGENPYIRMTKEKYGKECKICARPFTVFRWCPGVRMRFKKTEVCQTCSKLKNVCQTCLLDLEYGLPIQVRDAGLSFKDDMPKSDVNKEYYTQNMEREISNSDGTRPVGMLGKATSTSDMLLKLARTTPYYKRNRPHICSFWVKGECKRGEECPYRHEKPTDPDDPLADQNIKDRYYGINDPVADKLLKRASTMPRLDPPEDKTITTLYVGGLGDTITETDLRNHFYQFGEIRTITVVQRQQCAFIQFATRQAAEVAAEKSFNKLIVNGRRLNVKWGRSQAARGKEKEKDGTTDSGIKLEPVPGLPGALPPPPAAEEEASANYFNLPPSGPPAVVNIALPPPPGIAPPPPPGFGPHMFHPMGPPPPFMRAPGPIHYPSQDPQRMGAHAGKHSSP
UniProt Q9NZJ4: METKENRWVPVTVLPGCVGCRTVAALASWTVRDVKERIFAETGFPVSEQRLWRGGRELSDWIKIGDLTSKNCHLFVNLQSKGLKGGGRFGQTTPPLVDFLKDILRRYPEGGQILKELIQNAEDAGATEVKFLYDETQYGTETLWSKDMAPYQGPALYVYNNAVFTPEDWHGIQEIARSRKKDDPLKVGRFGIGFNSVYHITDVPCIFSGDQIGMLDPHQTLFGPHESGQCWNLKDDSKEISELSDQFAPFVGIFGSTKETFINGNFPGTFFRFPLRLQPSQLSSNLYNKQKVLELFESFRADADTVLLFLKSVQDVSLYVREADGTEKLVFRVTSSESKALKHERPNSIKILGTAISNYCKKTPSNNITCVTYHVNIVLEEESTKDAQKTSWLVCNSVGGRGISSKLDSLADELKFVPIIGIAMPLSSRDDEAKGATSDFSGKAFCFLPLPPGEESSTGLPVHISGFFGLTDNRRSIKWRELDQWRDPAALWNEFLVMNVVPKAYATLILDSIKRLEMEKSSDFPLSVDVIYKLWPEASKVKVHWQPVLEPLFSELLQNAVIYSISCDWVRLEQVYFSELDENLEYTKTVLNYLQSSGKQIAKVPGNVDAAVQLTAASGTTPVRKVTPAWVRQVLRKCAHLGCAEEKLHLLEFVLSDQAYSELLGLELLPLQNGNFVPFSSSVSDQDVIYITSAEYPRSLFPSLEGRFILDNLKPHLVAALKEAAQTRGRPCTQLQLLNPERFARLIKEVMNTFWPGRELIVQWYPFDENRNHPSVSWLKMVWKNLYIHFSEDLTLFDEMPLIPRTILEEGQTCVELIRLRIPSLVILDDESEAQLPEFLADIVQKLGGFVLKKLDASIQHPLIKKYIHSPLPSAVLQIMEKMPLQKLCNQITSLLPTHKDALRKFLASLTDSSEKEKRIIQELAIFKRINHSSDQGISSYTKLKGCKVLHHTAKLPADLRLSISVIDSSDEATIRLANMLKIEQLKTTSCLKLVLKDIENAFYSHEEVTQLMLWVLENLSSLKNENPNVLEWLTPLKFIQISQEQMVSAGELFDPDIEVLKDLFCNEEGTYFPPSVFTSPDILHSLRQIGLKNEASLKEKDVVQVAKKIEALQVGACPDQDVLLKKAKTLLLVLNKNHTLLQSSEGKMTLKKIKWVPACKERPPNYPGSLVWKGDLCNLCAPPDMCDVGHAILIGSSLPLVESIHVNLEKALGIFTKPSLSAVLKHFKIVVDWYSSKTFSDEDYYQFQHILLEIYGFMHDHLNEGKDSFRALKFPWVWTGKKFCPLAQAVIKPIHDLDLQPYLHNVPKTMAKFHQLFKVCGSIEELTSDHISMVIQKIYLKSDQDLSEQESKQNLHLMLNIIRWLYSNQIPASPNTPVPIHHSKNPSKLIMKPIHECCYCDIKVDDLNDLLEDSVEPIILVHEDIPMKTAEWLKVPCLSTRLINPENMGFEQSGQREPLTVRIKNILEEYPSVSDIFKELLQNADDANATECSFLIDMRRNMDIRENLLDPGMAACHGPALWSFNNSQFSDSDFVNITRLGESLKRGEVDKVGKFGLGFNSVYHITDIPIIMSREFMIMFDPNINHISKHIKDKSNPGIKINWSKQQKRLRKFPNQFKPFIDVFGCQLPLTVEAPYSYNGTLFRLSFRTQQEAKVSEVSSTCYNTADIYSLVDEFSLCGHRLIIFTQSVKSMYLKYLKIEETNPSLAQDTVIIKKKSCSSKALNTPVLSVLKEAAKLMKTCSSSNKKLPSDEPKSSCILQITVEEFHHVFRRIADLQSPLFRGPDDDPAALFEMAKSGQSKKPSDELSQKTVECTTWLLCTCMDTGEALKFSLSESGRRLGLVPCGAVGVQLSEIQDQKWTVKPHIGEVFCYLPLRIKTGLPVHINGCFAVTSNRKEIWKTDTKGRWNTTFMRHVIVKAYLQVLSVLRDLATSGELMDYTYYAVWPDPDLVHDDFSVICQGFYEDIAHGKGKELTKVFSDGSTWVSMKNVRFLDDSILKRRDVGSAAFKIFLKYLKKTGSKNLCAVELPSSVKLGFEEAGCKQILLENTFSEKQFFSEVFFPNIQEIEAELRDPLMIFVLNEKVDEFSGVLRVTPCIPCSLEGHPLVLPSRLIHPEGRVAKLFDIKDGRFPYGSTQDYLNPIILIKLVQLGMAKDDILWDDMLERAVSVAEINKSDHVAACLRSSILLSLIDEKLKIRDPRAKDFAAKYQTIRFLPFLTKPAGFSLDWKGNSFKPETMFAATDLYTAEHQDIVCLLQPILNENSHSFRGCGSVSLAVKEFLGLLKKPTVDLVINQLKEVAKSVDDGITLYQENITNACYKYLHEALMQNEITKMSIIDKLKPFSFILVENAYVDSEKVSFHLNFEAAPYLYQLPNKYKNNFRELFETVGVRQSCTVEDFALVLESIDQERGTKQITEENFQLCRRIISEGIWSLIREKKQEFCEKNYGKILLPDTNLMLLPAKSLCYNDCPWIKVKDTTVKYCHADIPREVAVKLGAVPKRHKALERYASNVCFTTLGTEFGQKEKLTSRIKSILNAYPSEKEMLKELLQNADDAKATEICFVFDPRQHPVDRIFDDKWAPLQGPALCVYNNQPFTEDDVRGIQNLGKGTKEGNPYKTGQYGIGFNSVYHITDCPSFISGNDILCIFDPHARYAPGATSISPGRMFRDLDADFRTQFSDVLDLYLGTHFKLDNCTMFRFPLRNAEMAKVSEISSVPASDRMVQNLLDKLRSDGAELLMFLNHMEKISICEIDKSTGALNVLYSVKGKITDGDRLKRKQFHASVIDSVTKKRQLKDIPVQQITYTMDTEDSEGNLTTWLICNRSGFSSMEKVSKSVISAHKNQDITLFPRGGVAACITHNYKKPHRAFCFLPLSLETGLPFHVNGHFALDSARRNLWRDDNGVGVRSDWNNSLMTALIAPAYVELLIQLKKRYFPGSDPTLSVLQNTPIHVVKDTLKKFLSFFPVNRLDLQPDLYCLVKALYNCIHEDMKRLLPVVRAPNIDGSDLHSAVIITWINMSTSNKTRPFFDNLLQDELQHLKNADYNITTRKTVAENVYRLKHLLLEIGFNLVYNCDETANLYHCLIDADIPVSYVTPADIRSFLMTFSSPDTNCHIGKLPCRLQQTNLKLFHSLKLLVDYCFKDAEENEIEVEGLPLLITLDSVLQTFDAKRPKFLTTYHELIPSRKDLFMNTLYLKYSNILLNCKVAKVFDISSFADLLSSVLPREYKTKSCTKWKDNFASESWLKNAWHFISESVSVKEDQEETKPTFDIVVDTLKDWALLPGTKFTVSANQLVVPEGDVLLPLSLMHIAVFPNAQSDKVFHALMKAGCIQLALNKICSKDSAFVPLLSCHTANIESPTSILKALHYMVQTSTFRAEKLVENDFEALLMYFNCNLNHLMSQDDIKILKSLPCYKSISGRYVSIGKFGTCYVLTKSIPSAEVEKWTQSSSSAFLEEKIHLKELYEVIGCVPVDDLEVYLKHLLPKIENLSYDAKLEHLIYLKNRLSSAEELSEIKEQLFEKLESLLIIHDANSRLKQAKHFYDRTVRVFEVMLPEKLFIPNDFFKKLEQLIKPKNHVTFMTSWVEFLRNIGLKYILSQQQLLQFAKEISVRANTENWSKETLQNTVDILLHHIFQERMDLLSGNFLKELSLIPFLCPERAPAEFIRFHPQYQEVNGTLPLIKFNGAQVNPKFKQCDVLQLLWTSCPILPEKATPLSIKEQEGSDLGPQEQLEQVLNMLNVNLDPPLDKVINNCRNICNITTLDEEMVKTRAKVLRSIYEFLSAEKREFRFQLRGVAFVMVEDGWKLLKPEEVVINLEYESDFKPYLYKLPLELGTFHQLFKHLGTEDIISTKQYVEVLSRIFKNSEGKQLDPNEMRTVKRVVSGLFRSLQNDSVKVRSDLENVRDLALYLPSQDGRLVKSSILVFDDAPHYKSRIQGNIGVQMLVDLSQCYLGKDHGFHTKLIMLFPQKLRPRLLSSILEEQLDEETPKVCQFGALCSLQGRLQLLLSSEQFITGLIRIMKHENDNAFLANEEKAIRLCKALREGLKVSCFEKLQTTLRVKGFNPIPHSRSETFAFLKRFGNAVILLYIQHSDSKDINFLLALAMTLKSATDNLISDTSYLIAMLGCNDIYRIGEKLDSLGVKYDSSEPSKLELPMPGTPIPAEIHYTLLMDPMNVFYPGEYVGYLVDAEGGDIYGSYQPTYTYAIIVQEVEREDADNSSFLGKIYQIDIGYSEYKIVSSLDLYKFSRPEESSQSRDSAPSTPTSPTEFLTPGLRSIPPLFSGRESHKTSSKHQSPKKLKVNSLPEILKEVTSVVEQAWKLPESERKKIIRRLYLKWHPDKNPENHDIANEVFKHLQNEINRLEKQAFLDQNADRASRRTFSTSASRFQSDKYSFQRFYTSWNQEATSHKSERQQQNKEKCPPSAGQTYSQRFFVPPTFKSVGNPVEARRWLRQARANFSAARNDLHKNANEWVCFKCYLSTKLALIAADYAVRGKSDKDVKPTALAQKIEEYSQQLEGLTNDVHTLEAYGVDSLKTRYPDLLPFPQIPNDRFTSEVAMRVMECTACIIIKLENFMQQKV

What follows are targets tested with Nc1ncnc2c1ncn2[C@@H]1O[C@H](COP(=O)(O)OP(=O)(O)OP(=O)(O)O)[C@@H](O)[C@H]1O [adenosine triphosphate] (assay: NP40-soluble protein abundance relative to vehicle (solubility fold change) (ratio); higher = more soluble protein in presence of ATP). Conditions: concentration: 0.5mM.
In short: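 Data come from three independent experiments in which Dounce-homogenised Jurkat crude lysate was treated at eight concentrations from 0.1 to 10 mM. Treatment ran 10 min at room temperature and then 3 min at 37 °C, after which 0.8% NP40 and benzonase were added for 60 min at 4 °C before ultracentrifugation. The supernatant underwent TMT labelling and LC-MS/MS, and vsn-normalised intensities were expressed as fold change against the detergent-processed vehicle in each replicate.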

Target	NP40-soluble protein abundance
UniProt Q9NUL3-3|Q9NUL3-8|A0A0A0MTD1|E7EPX0 and related entries	0.958 ± 0.052
UniProt Q9NY12 and related entries	1.04 ± 0.079
SERINC1 (UniProt Q9NRX5)	0.934 ± 0.12
GEMIN8 (UniProt Q9NWZ8)	0.892 ± 0.14
UniProt Q9NQW7-3	1.04 ± 0.05
UniProt Q9NVX7-2|A0A075B6T4|Q9NVX7	1.02 ± 0.026
MRPL17 (UniProt Q9NRX2)	0.853 ± 0.14
UniProt Q9NUQ7 and related entries	1.12 ± 0.066
IRAK4 (UniProt Q9NWZ3)	1.04 ± 0.057

Same assay, conditions: concentration: 1mM

Target	NP40-soluble protein abundance
UniProt Q9NZC7 and related entries	1.028 ± 0.01
IARS2 (UniProt Q9NSE4)	1.04 ± 0.08
DDX18 (UniProt Q9NVP1)	1.21 ± 0.029
RPRD1B (UniProt Q9NQG5)	0.969 ± 0.12
UniProt Q9NUL5	0.948 ± 0.041
UniProt Q9NYK6 and related entries	1.09 ± 0.13
UniProt Q9NVI7-2	1.54 ± 0.05
UniProt Q9P035 and related entries	1.1 ± 0.16
MRPL16 (UniProt Q9NX20)	1.17 ± 0.12
ARMC1 (UniProt Q9NVT9)	0.913 ± 0.046
UniProt Q9NYP7 and related entries	1.07 ± 0.19
ARGLU1 (UniProt Q9NWB6)	1.72 ± 0.14
DDX21 (UniProt Q9NR30)	1.29 ± 0.046
LUC7L (UniProt Q9NQ29)	2.7 ± 0.14
BIRC6 (UniProt Q9NR09)	1.05 ± 0.029
TDP1 (UniProt Q9NUW8)	1.02 ± 0.032
UniProt Q9NW64	1.05 ± 0.068
SACS (UniProt Q9NZJ4)	1.09 ± 0.08

Reprinted at random: 2 records from the list
Target	NP40-soluble protein abundance
LUC7L (UniProt Q9NQ29)	2.7 ± 0.14
ARMC1 (UniProt Q9NVT9)	0.913 ± 0.046
